Most of the targets with a hit are listed elsewhere, so they are rarer here than in the full data. The data scatter; read single values as rough. The list shows a part of the results, in another mix than the full data.

By UniProt entry, the sequences of proteins in these tests, tags left out. Where a name states a change or a piece, a line headed by the entry shows the natural chain unless it says otherwise.
UniProt Q9C0C2: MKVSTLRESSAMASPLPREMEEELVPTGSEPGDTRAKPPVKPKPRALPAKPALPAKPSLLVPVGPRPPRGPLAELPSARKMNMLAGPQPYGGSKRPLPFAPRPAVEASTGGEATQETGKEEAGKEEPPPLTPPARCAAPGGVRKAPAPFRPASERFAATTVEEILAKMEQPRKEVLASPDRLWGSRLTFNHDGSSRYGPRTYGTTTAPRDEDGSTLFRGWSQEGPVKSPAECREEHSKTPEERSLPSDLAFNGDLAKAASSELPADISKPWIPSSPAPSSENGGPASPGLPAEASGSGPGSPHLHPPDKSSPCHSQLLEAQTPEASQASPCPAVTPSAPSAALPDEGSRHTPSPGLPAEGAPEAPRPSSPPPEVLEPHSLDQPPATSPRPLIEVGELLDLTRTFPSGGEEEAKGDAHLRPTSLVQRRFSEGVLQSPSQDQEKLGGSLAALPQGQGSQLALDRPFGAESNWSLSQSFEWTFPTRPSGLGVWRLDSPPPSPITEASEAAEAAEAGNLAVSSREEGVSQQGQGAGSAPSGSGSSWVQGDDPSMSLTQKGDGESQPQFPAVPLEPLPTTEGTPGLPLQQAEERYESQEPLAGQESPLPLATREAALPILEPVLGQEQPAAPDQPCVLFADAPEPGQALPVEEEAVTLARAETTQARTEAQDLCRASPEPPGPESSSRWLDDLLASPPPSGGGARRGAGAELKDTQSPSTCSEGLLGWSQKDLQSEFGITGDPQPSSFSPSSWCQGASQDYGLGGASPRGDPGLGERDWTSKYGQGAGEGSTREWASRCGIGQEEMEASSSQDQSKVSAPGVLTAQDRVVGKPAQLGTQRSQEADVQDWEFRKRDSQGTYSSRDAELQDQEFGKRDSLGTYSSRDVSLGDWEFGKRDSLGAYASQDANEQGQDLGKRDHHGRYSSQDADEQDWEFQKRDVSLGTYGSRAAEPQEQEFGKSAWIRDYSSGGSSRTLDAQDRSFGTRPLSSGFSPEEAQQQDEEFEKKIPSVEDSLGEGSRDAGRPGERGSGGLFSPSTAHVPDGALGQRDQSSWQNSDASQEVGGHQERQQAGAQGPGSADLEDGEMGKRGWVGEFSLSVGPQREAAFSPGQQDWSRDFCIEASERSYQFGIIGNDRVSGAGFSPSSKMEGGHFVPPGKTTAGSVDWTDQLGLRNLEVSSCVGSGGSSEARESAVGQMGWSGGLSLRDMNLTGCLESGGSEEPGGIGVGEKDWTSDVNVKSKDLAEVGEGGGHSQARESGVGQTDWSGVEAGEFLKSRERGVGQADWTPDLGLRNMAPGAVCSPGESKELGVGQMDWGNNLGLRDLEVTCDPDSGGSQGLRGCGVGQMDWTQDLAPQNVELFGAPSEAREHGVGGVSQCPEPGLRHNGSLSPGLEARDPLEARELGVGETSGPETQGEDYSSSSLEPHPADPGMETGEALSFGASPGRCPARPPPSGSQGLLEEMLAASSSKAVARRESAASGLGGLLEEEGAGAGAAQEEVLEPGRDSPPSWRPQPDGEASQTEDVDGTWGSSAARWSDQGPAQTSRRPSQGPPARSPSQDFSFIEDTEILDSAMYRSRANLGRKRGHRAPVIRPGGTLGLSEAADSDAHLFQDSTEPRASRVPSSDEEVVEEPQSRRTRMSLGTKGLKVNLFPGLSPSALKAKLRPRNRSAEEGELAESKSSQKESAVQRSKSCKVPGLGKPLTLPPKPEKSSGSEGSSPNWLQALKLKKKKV
UniProt Q9BWT3: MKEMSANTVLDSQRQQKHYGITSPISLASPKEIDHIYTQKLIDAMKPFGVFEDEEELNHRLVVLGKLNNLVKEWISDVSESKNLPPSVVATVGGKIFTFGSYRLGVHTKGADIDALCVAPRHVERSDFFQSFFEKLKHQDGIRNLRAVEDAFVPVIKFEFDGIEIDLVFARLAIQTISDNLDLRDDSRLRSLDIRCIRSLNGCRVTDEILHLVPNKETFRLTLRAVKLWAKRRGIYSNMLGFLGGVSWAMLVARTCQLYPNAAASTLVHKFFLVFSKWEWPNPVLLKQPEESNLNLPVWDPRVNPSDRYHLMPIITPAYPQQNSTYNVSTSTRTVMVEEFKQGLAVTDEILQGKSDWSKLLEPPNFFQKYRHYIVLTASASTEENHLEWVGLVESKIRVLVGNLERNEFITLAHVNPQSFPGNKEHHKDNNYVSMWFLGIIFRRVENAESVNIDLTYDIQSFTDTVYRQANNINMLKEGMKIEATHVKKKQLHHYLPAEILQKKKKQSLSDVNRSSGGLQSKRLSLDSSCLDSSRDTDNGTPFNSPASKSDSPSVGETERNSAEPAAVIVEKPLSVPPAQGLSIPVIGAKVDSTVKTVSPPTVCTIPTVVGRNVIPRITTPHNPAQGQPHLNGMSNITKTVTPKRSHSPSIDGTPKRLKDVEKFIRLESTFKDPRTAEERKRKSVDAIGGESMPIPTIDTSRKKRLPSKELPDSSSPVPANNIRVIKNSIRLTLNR
UniProt Q9BR76, whole entry: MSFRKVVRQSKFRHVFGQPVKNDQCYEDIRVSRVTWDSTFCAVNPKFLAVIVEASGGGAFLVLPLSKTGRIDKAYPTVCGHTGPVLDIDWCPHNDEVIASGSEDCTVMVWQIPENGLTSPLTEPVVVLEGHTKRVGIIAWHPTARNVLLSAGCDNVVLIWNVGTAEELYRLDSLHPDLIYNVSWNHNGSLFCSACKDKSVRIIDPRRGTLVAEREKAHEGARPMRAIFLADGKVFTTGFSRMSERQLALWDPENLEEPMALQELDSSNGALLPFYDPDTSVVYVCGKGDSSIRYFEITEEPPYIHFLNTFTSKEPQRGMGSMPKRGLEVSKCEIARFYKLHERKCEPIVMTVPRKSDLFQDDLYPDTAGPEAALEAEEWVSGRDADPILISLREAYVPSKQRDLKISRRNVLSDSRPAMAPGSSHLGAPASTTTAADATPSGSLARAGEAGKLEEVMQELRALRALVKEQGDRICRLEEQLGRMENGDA
UniProt Q9BUF5, whole entry, looked up: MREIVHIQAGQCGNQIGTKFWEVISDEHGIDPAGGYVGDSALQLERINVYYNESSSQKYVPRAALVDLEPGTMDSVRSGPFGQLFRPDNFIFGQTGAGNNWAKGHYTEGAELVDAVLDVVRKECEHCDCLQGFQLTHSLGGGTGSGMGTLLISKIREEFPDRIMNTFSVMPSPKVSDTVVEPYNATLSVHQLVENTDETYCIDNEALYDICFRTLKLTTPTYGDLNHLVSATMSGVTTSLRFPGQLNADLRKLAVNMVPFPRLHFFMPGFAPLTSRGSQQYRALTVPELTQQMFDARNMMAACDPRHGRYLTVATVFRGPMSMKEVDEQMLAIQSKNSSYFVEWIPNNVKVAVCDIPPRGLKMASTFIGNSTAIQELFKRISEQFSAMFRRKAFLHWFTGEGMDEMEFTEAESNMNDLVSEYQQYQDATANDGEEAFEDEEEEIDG
UniProt Q9BV57: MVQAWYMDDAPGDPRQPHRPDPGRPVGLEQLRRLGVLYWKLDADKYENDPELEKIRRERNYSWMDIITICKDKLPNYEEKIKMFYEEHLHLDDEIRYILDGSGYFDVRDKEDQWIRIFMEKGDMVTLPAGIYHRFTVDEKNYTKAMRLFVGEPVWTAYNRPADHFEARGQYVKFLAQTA
UniProt Q9BXJ9: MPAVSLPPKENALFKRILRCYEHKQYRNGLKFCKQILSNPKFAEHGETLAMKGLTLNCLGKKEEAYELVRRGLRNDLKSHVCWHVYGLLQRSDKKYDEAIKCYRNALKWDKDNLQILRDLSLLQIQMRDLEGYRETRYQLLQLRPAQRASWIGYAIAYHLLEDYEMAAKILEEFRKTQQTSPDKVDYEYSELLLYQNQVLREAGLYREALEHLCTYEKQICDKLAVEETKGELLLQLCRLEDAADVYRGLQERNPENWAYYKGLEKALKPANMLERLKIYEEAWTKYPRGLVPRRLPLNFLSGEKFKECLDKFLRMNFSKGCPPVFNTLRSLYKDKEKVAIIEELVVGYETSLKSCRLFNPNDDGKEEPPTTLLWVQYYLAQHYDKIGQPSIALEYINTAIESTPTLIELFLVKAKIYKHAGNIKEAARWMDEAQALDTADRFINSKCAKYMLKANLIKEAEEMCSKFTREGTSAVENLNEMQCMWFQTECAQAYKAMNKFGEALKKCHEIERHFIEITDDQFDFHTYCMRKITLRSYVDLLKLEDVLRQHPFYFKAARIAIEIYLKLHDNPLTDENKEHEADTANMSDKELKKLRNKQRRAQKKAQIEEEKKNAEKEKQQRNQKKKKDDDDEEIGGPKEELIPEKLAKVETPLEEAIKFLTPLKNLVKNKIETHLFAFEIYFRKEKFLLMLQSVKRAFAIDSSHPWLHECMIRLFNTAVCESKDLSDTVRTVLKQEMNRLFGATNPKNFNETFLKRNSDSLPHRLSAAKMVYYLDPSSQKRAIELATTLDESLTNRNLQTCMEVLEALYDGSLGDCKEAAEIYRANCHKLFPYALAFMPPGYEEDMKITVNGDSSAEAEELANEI
UniProt Q9C0C9: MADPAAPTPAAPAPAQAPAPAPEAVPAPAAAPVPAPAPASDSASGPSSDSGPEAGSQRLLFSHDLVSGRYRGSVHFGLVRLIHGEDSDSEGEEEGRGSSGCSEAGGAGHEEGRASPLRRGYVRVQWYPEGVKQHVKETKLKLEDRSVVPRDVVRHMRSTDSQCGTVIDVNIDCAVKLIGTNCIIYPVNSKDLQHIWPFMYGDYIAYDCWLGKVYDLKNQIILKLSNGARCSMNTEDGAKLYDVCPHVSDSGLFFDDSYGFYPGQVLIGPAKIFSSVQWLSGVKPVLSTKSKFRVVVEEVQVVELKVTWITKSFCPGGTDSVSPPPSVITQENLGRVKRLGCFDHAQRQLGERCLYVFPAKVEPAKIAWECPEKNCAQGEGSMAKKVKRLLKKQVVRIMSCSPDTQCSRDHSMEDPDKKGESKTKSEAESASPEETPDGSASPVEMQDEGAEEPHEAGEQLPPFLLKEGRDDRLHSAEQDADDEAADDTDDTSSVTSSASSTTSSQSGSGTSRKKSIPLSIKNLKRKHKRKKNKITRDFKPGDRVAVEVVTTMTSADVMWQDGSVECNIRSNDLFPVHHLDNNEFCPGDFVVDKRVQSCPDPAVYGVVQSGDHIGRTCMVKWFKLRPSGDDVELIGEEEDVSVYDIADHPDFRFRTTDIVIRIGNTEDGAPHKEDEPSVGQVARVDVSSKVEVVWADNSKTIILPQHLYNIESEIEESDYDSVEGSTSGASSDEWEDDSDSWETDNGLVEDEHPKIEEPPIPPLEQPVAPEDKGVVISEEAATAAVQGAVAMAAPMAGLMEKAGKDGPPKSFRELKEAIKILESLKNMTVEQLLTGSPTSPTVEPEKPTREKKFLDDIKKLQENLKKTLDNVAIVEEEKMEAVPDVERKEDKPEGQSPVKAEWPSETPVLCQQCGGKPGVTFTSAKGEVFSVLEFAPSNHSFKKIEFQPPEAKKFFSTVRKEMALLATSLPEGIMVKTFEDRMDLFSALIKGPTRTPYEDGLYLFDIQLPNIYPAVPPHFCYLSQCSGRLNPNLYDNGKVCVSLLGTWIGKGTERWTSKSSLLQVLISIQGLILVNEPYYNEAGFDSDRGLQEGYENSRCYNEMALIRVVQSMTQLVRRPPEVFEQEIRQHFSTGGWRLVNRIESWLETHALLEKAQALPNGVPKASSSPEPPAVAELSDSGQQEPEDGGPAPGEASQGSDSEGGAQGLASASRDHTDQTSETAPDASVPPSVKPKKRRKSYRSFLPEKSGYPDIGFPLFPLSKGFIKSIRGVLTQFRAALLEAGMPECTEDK
UniProt Q9GZR2: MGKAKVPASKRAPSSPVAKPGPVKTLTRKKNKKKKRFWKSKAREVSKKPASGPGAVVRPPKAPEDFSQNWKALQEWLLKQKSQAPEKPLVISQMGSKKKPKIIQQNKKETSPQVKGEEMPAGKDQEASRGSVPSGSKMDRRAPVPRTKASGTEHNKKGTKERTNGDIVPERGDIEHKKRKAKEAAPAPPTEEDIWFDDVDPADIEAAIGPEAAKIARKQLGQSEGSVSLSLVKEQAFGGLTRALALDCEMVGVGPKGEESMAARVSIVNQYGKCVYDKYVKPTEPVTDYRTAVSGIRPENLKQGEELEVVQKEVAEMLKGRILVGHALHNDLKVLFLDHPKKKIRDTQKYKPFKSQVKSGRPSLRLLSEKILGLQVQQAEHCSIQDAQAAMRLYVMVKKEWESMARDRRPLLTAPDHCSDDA
UniProt Q9BYV8: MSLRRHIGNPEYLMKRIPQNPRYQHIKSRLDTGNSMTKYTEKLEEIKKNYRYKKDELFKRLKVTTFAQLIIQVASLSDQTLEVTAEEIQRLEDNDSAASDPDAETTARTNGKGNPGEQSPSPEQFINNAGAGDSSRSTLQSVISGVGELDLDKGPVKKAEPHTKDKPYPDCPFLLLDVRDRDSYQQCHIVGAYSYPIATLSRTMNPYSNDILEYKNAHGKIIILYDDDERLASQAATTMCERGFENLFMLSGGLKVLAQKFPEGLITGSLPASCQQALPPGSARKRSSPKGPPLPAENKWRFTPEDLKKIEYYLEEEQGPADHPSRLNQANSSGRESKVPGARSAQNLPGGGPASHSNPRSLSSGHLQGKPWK

Compound in this assay: COC(=O)/C=C/c1ccccc1 [methyl cinnamate]
The assay can be described thus: log2 ratio of iodoacetamide-alkyne labeling of the cysteine site, DMSO over compound (competition); higher = stronger covalent engagement of the cysteine by the compound, active = 1 or more. As to conditions: 500 µM; treatment time 1 h; system: HEK293T cell lysate. Summed up: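 HEK293T lysate at 2 mg/mL was treated with vehicle or electrophile (500 µM) for 1 h at ambient temperature, then labelled with iodoacetamide alkyne (1 h), clicked to sCIP-TMT reagents, pooled, digested with trypsin overnight at 37 °C, enriched on streptavidin and eluted with acid. Peptides were analysed by Orbitrap Eclipse LC-MS/MS with FAIMS and quantified in FragPipe, using duplicate channels and three replicates, with cysteines quantified in only one replicate excluded. The log2 competition ratio for each cysteine is the mean control-channel reporter intensity divided by the mean compound-channel reporter intensity.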
Turning to TBCD C1192 (UniProt Q9BTW9), the “log2 ratio of iodoacetamide-alkyne labeling” value (from here on “log2 ratio”) was inactive: 0.045.

For the target RAB3GAP2 C78 (UniProt Q9H2M9), the “log2 ratio” value was inactive: -0.0638.

In the case of TNKS1BP1 C1443 (UniProt Q9C0C2), the “log2 ratio” value was inactive: 0.169.

In the case of DIDO1 C350 (UniProt Q9BTC0), the “log2 ratio” value is inactive: 0.207.

As for PAPOLG C604 (UniProt Q9BWT3), the “log2 ratio” value is inactive: 0.104.

With CORO1B C475 (UniProt Q9BR76), the “log2 ratio” value was inactive: 0.261.

Consider ILKAP C190 (UniProt Q9H0C8), for which the “log2 ratio” value was inactive: -0.0171.

TUBB6 C124 (UniProt Q9BUF5): the “log2 ratio” value is inactive: 0.154.

In the case of UniProt Q9BTT6_C432, the “log2 ratio” value was inactive: 0.0938.

With MSTO1 C46 (UniProt Q9BUK6), the “log2 ratio” value was inactive: 0.299.

With MED28 C80 (UniProt Q9H204), the “log2 ratio” value was inactive: 0.851.

Turning to UniProt Q9BRT3_C33, the “log2 ratio” value was inactive: 0.371.

As to ADI1 C70 (UniProt Q9BV57), the “log2 ratio” value was inactive: 0.0329.

In the case of TANC1 C1594 (UniProt Q9C0D5), the “log2 ratio” value was inactive: 0.318.

Consider UniProt Q9BSH4_C112, for which the “log2 ratio” value was inactive: -0.149.

For the target COPS4 C70 (UniProt Q9BT78), the “log2 ratio” value is inactive: 0.0951.

For the target UniProt Q9BXJ9_C214, the “log2 ratio” value is inactive: 0.0769.

With UBE2O C244 (UniProt Q9C0C9), the “log2 ratio” value was inactive: -0.203.

For RAB3GAP2 C67 (UniProt Q9H2M9), the “log2 ratio” value was inactive: 0.421.

Regarding DDX24 C467 (UniProt Q9GZR7), the “log2 ratio” value was inactive: 0.218.

With UniProt Q9BSH4_C256, the “log2 ratio” value was inactive: -0.208.

As to DDA1 C25 (UniProt Q9BW61), the “log2 ratio” value was inactive: 0.259.

With MRI1 C168 (UniProt Q9BV20), the “log2 ratio” value was inactive: 0.0127.

Regarding KLC2 C474 (UniProt Q9H0B6), the “log2 ratio” value was inactive: 0.176.

Turning to TNKS1BP1 C232 (UniProt Q9C0C2), the “log2 ratio” value was inactive: 0.046.

With TRIOBP C2233 (UniProt Q9H2D6), the “log2 ratio” value is inactive: 0.13.

HDAC8 C153 (UniProt Q9BY41): the “log2 ratio” value is inactive: 0.0233.

Take GNL3 C156 (UniProt Q9BVP2): the “log2 ratio” value is inactive: 0.0234.

With UniProt Q9BXV9_C21, the “log2 ratio” value was inactive: 0.211.

In the case of NUSAP1 C256 (UniProt Q9BXS6), the “log2 ratio” value is inactive: 0.32.

For UniProt Q9BXP5_C490, the “log2 ratio” value was inactive: 0.0425.

In the case of REXO4 C382 (UniProt Q9GZR2), the “log2 ratio” value is inactive: 0.144.

On to UniProt Q9BYV8_C171, for which the “log2 ratio” value is inactive: 0.112.

Turning to FTO C397 (UniProt Q9C0B1), the “log2 ratio” value was inactive: 0.193.

On to ACTR6 C339 (UniProt Q9GZN1), for which the “log2 ratio” value is inactive: 0.0523.

Regarding UniProt Q9BZL1_C6, the “log2 ratio” value was inactive: 0.194.

In the case of DIDO1 C1685 (UniProt Q9BTC0), the “log2 ratio” value is inactive: 0.525.

Values taken from the supplement of paper PMC11006884.
